PubChem BioAssay AID1053208 – Peter MacCallum Cancer Centre – 2014

Assay: 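Genes whose silencing cuts survival of bone tumour cells only with doxorubicin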 (primary screen)
System: mouse osteosarcoma cells, early-passage culture from an engineered mouse model of fibroblastic bone tumour
Reagent: siRNA pool against mouse genes, 40 nM
Timing: about 120 h (48 h before drug, then 72 h with drug)
Treatment: doxorubicin 100 nM for 72 h, roughly 30-40% inhibitory dose
Measurement: 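Viability read as ATP luminescence after 72 h of 100 nM doxorubicin or none, duplicate wells averaged, scaled to non-targeting siRNA, then expressed as robust z-scores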
Direction: viability z-score with doxorubicin and doxorubicin viability vs non-targeting: higher = more viable cells under doxorubicin; viability z-score without drug: higher = more viable cells with knock-down alone; z-score of drug to no-drug ratio: higher = less drug sensitisation by knock-down
Call rule: 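a pool counts as active when its viability z-score with doxorubicin is -2 or below and its z-score without drug lies between -2 and 2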
Here is one part, drawn at random, of about 17,000 reagents. 788 of all reagents (4.7%) were called active. 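Calls rest on z-score classes alone; an extra cut-off of viability at most 70% of control was not applied to them.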 A number with no mark means an inactive call. Reagent sequences are not shown.

gene,combined z-score class,viability z-score with doxorubicin,viability z-score without drug,z-score of drug to no-drug ratio,doxorubicin viability vs non-targeting
FIN14,no change with or without drug,-0.67,0.34,-0.79,0.88
Hmgcs2 (3-hydroxy-3-methylglutaryl-Coenzyme A synthase 2),no change with or without drug,-0.67,-1.52,0.45,0.88
Zfp595 (zinc finger protein 595),no change with or without drug,-0.45,-1.18,0.45,0.9
Grhpr (glyoxylate reductase/hydroxypyruvate reductase),no change with or without drug,-0.67,-1.01,0.11,0.88
"Wasf3 (WASP family, member 3)",no change with or without drug,-0.79,-0.51,-0.34,0.87
"Chaf1b (chromatin assembly factor 1, subunit B)",no change with or without drug,-0.22,1.35,-1.01,0.92
Cd19 (CD19 antigen),no change with or without drug,1.35,1.35,0.56,1.06
"Fam53c (family with sequence similarity 53, member C)",no change with or without drug,0.45,0.51,0.22,0.98
Oaz1 (ornithine decarboxylase antizyme 1),no change with or without drug,0.45,0.84,0,0.98
Fzd1 (frizzled class receptor 1),no change with or without drug,1.91,1.52,1.01,1.11
"Bfsp1 (beaded filament structural protein 1, in lens-CP94)",no change with or without drug,0,-0.17,0.22,0.94
Trim16 (tripartite motif-containing 16),no change with or without drug,0,1.85,-1.01,0.94
Or4e1 (olfactory receptor family 4 subfamily E member 1),no change with or without drug,0,-1.18,1.01,0.94
Sra1 (steroid receptor RNA activator 1),no change with or without drug,1.35,0.34,1.24,1.06
Ifna12 (interferon alpha 12),no change with or without drug,1.24,1.35,0.45,1.05
Crebrf (CREB3 regulatory factor),no change with or without drug,0.56,1.52,-0.34,0.99
Utp6 (UTP6 small subunit processome component),no change with or without drug,-0.45,-1.01,0.34,0.9
Rgs4 (regulator of G-protein signaling 4),no change with or without drug,1.8,1.18,1.12,1.1
Cep112 (centrosomal protein 112),no change with or without drug,0.9,-0.51,1.46,1.02
Msh6 (mutS homolog 6),no change with or without drug,-0.22,-1.18,0.79,0.92
"Cryge (crystallin, gamma E)",no change with or without drug,0.67,1.18,0,1
Rgs17 (regulator of G-protein signaling 17),no change with or without drug,-0.45,0.17,-0.45,0.9
Morn4 (MORN repeat containing 4),no change with or without drug,-0.45,-0.84,0.22,0.9
Ints5 (integrator complex subunit 5),no change with or without drug,-1.57,-1.85,-0.34,0.8
"Tor2a (torsin family 2, member A)",no change with or without drug,1.57,-0.84,2.47,1.08
Or5p60 (olfactory receptor family 5 subfamily P member 60),no change with or without drug,-0.67,-0.84,0,0.88
Btnl10 (butyrophilin-like 10),no change with or without drug,0.79,-0.17,1.01,1.01
Myo7a (myosin VIIA),high cell count with doxorubicin only,2.25,0.67,1.91,1.14
Trib1 (tribbles pseudokinase 1),no change with or without drug,-1.01,-0.67,-0.56,0.85
Ntmt1 (N-terminal Xaa-Pro-Lys N-methyltransferase 1),no change with or without drug,0.45,0.51,0.22,0.98
Stpg1 (sperm tail PG rich repeat containing 1),no change with or without drug,0.22,1.35,-0.56,0.96
"Ppp1r8 (protein phosphatase 1, regulatory subunit 8)",no change with or without drug,-1.24,-0.84,-0.67,0.83
Erbb4 (erb-b2 receptor tyrosine kinase 4),no change with or without drug,0.56,-0.34,0.9,0.99
Fundc2 (FUN14 domain containing 2),no change with or without drug,0.56,1.01,0,0.99
Swt1 (SWT1 RNA endoribonuclease homolog (S. cerevisiae)),no change with or without drug,0.56,0.51,0.34,0.99
Vmn1r193 (vomeronasal 1 receptor 193),no change with or without drug,-1.57,-0.34,-1.35,0.8
"Nr2f6 (nuclear receptor subfamily 2, group F, member 6)",no change with or without drug,0.67,1.69,-0.34,1
Rhog (ras homolog family member G),no change with or without drug,0.67,1.01,0.11,1
Mphosph9 (M-phase phosphoprotein 9),no change with or without drug,0,1.18,-0.67,0.94

The list goes on, starting with the last 5 of the part before.
gene,combined z-score class,viability z-score with doxorubicin,viability z-score without drug,z-score of drug to no-drug ratio,doxorubicin viability vs non-targeting
Swt1 (SWT1 RNA endoribonuclease homolog (S. cerevisiae)),no change with or without drug,0.56,0.51,0.34,0.99
Vmn1r193 (vomeronasal 1 receptor 193),no change with or without drug,-1.57,-0.34,-1.35,0.8
"Nr2f6 (nuclear receptor subfamily 2, group F, member 6)",no change with or without drug,0.67,1.69,-0.34,1
Rhog (ras homolog family member G),no change with or without drug,0.67,1.01,0.11,1
Mphosph9 (M-phase phosphoprotein 9),no change with or without drug,0,1.18,-0.67,0.94
"Lsm8 (LSM8 homolog, U6 small nuclear RNA associated)",no change with or without drug,0,-1.35,1.12,0.94
Kcnn1,no change with or without drug,-0.67,0.51,-0.9,0.88
Tex14 (testis expressed gene 14 intercellular bridge forming factor),no change with or without drug,-1.24,0,-1.24,0.83
Sh2d7 (SH2 domain containing 7),no change with or without drug,-0.67,1.35,-1.46,0.88
Frg1 (FSHD region gene 1),no change with or without drug,-0.79,0.51,-1.01,0.87
Zcrb1 (zinc finger CCHC-type and RNA binding motif 1),no change with or without drug,-0.22,-0.67,0.34,0.92
Elf2 (E74-like factor 2),no change with or without drug,0.34,1.35,-0.45,0.97
Trim30a (tripartite motif-containing 30A),high cell count with and without drug,4.05,2.02,2.59,1.3
Rabgef1 (RAB guanine nucleotide exchange factor (GEF) 1),no change with or without drug,-0.11,-0.17,0.11,0.93
"Fam91a1 (family with sequence similarity 91, member A1)",no change with or without drug,0.22,0.84,-0.22,0.96
Mmp9 (matrix metallopeptidase 9),no change with or without drug,0.56,1.18,-0.11,0.99
"Aldh9a1 (aldehyde dehydrogenase 9, subfamily A1)",no change with or without drug,1.01,0.51,0.79,1.03
Epb41l1 (erythrocyte membrane protein band 4.1 like 1),no change with or without drug,-1.12,-0.34,-0.9,0.84
Ncoa5 (nuclear receptor coactivator 5),no change with or without drug,0.67,-1.01,1.57,1
Spop (speckle-type BTB/POZ protein),no change with or without drug,1.57,0.84,1.12,1.08
D030060O14RIK,high cell count without drug only,1.12,2.02,-0.11,1.04
Or8g55 (olfactory receptor family 8 subfamily G member 55),low cell count with doxorubicin only (active),-2.02,-0.84,-1.57,0.76
Zfp263 (zinc finger protein 263),no change with or without drug,-1.12,-0.51,-0.79,0.84
Slc6a18,no change with or without drug,0.56,1.18,-0.11,0.99
Magea5 (MAGE family member A5),no change with or without drug,-0.67,0.17,-0.67,0.88
"Adra2b (adrenergic receptor, alpha 2b)",no change with or without drug,-0.22,-0.84,0.45,0.92
Dyrk3 (dual-specificity tyrosine phosphorylation regulated kinase 3),no change with or without drug,0,-0.84,0.67,0.94
"Serpinb9f (serine (or cysteine) peptidase inhibitor, clade B, member 9f)",no change with or without drug,-0.45,0.67,-0.79,0.9
BC005624 (cDNA sequence BC005624),no change with or without drug,-0.67,-0.51,-0.22,0.88
